PubChem BioAssay AID1259405 – NCATS, 2018

- Aim: 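Silenced genes that increase secreted GFP made by CHO cells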 (primary screen)
- Cell system: Chinese hamster CHO-K1 ovary cells with stable secreted eGFP expression
- Knock-down reagent: single siRNA against mouse genes, 0.8 pmol siRNA per well (2 µl of 400 nM stock)
- Time to read-out: 3 days
- Detection: 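Percent of the per-plate non-targeting control median for intracellular GFP per well by laser scanning cytometry and for cell viability by ATP luminescence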
- Direction: GFP, % of control: higher = more GFP per well, higher productivity; viability (ATP), % of control: higher = more viable cells (more ATP)
- Call rule: 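a knock-down is called active if GFP reaches 120% or more of non-targeting control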
Shown is a random part of about 50,000 reagents tested. In the full data, about 4,000 (8%) were called active. 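Mouse siRNA library applied to hamster cells; one well for each siRNA.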 The numbers tell different reagents against one gene apart.

| gene | reagent | GFP, % of control | viability (ATP), % of control | Outcome |
| --- | --- | --- | --- | --- |
| Nelfe (negative elongation factor complex member E, Rdbp) | 1 | 78.3 | 52 | inactive |
| Nelfe (negative elongation factor complex member E, Rdbp) | 2 | 83.5 | 59.9 | inactive |
| Rapgef1 (Rap guanine nucleotide exchange factor (GEF) 1) | 1 | 76.7 | 95.3 | inactive |
| Rapgef1 (Rap guanine nucleotide exchange factor (GEF) 1) | 2 | 56.2 | 64.2 | inactive |
| Rapgef1 (Rap guanine nucleotide exchange factor (GEF) 1) | 3 | 70.7 | 69.5 | inactive |
| Capza1 (capping actin protein of muscle Z-line subunit alpha 1) | 1 | 163 | 75.6 | active |
| Capza1 (capping actin protein of muscle Z-line subunit alpha 1) | 2 | 61.7 | 66.8 | inactive |
| Capza1 (capping actin protein of muscle Z-line subunit alpha 1) | 3 | 57.1 | 82.9 | inactive |
| Lcn12 (lipocalin 12) | 1 | 92 | 74 | inactive |
| Lcn12 (lipocalin 12) | 2 | 38.8 | 29.8 | inactive |
| Lcn12 (lipocalin 12) | 3 | 104 | 62.5 | inactive |
| Ska2 (spindle and kinetochore associated complex subunit 2) | 1 | 76.2 | 83.8 | inactive |
| Ska2 (spindle and kinetochore associated complex subunit 2) | 2 | 123 | 108 | active |
| Ska2 (spindle and kinetochore associated complex subunit 2) | 3 | 76 | 55.3 | inactive |
| Lyz3 (lysozyme 3) | 1 | 64.3 | 66.9 | inactive |
| Lyz3 (lysozyme 3) | 2 | 65.9 | 93.6 | inactive |
| Lyz3 (lysozyme 3) | 3 | 52.5 | 52.6 | inactive |
| Or5ac22 (olfactory receptor family 5 subfamily AC member 22) | 1 | 52.1 | 55.2 | inactive |
| Or5ac22 (olfactory receptor family 5 subfamily AC member 22) | 2 | 109 | 95.5 | inactive |
| Or5ac22 (olfactory receptor family 5 subfamily AC member 22) | 3 | 23.4 | 63.7 | inactive |
| Pnpt1 (polyribonucleotide nucleotidyltransferase 1) | 1 | 111 | 86.8 | inactive |
| Pnpt1 (polyribonucleotide nucleotidyltransferase 1) | 2 | 115 | 98.4 | inactive |
| Pnpt1 (polyribonucleotide nucleotidyltransferase 1) | 3 | 82.3 | 94.2 | inactive |
| Vmn1r179 (vomeronasal 1 receptor 179) | 1 | 79.5 | 72.1 | inactive |
| Vmn1r179 (vomeronasal 1 receptor 179) | 2 | 85.4 | 58 | inactive |
| Vmn1r179 (vomeronasal 1 receptor 179) | 3 | 68.8 | 91.9 | inactive |
| Nlrp9b (NLR family, pyrin domain containing 9B) | 1 | 59.1 | 49.3 | inactive |
| Nlrp9b (NLR family, pyrin domain containing 9B) | 2 | 68.7 | 79.9 | inactive |
| Nlrp9b (NLR family, pyrin domain containing 9B) | 3 | 74.9 | 64.3 | inactive |
| Smo (smoothened, frizzled class receptor) | 1 | 67.9 | 51.8 | inactive |
| Smo (smoothened, frizzled class receptor) | 2 | 51.8 | 51.8 | inactive |
| Smo (smoothened, frizzled class receptor) | 3 | 52.8 | 49.6 | inactive |
| Epgn (epithelial mitogen) | 1 | 93.2 | 93.1 | inactive |
| Epgn (epithelial mitogen) | 2 | 22.6 | 34.8 | inactive |
| Epgn (epithelial mitogen) | 3 | 51.3 | 58.2 | inactive |
| Or12e8 (olfactory receptor family 12 subfamily E member 8) | 1 | 97.2 | 53.7 | inactive |
| Or12e8 (olfactory receptor family 12 subfamily E member 8) | 2 | 82.9 | 57.5 | inactive |
| Or12e8 (olfactory receptor family 12 subfamily E member 8) | 3 | 86 | 80.5 | inactive |
| Tacc1 (transforming, acidic coiled-coil containing protein 1) | 1 | 122 | 73.7 | active |
| Tacc1 (transforming, acidic coiled-coil containing protein 1) | 2 | 66.7 | 63.1 | inactive |
| Tacc1 (transforming, acidic coiled-coil containing protein 1) | 3 | 83.8 | 103 | inactive |
| Tle6 (transducin-like enhancer of split 6) | 1 | 108 | 61.4 | inactive |
| Tle6 (transducin-like enhancer of split 6) | 2 | 88.6 | 119 | inactive |
| Tle6 (transducin-like enhancer of split 6) | 3 | 115 | 69.8 | inactive |
| Sqstm1 (sequestosome 1) | 1 | 28.2 | 36.9 | inactive |
| Sqstm1 (sequestosome 1) | 2 | 83.8 | 89.9 | inactive |
| Sqstm1 (sequestosome 1) | 3 | 107 | 147 | inactive |
| Lyrm2 (LYR motif containing 2) | 1 | 100 | 82.9 | inactive |
| Lyrm2 (LYR motif containing 2) | 2 | 58.5 | 80.9 | inactive |
| Lyrm2 (LYR motif containing 2) | 3 | 70.7 | 51.7 | inactive |
| Elovl4 (ELOVL fatty acid elongase 4) | 1 | 83.6 | 92.6 | inactive |
| Elovl4 (ELOVL fatty acid elongase 4) | 2 | 68.8 | 175 | inactive |
| Elovl4 (ELOVL fatty acid elongase 4) | 3 | 72.8 | 92.4 | inactive |
| Ube2e1 (ubiquitin-conjugating enzyme E2E 1) | 1 | 86.8 | 89.6 | inactive |
| Ube2e1 (ubiquitin-conjugating enzyme E2E 1) | 2 | 52.8 | 52.9 | inactive |
| Ube2e1 (ubiquitin-conjugating enzyme E2E 1) | 3 | 88.6 | 128 | inactive |
| Igflr1 (IGF-like family receptor 1) | 1 | 71.6 | 41.8 | inactive |
| Igflr1 (IGF-like family receptor 1) | 2 | 108 | 75.3 | inactive |
| Igflr1 (IGF-like family receptor 1) | 3 | 103 | 83.9 | inactive |
| Abcf2 (ATP-binding cassette, sub-family F member 2) | 1 | 70.3 | 78.1 | inactive |
| Abcf2 (ATP-binding cassette, sub-family F member 2) | 2 | 14.4 | 15.3 | inactive |
| Abcf2 (ATP-binding cassette, sub-family F member 2) | 3 | 59.5 | 73 | inactive |
| Tlr9 (toll-like receptor 9) | 1 | 58.3 | 51.5 | inactive |
| Tlr9 (toll-like receptor 9) | 2 | 94.5 | 48.4 | inactive |
| Tlr9 (toll-like receptor 9) | 3 | 73.6 | 97.2 | inactive |
| Slc7a13 | 1 | 52.2 | 63 | inactive |
| Slc7a13 | 2 | 133 | 81.1 | active |
| Slc7a13 | 3 | 80.8 | 82.2 | inactive |
| Or10g6 (olfactory receptor family 10 subfamily G member 6) | 1 | 60.3 | 61.6 | inactive |
| Or10g6 (olfactory receptor family 10 subfamily G member 6) | 2 | 94 | 103 | inactive |
| Or10g6 (olfactory receptor family 10 subfamily G member 6) | 3 | 75.1 | 58.9 | inactive |
| Noc2l (NOC2 like nucleolar associated transcriptional repressor) | 1 | 77.2 | 47.9 | inactive |
| Noc2l (NOC2 like nucleolar associated transcriptional repressor) | 2 | 80.8 | 64.4 | inactive |
| Noc2l (NOC2 like nucleolar associated transcriptional repressor) | 3 | 71.2 | 89.4 | inactive |
| Fhit (fragile histidine triad gene) | 1 | 148 | 82.2 | active |
| Fhit (fragile histidine triad gene) | 2 | 248 | 72.5 | active |
| Fhit (fragile histidine triad gene) | 3 | 84.1 | 78 | inactive |
| 9130221H12Rik (RIKEN cDNA 9130221H12 gene) | 1 | 74 | 104 | inactive |
| 9130221H12Rik (RIKEN cDNA 9130221H12 gene) | 2 | 118 | 84.6 | inactive |
| 9130221H12Rik (RIKEN cDNA 9130221H12 gene) | 3 | 119 | 138 | inactive |
| Tbx15 (T-box 15) | 1 | 61.5 | 65.6 | inactive |
| Tbx15 (T-box 15) | 2 | 67.2 | 70.8 | inactive |
| Tbx15 (T-box 15) | 3 | 85.3 | 79.9 | inactive |
| Slc2a6 | 1 | 61.4 | 69 | inactive |
| Slc2a6 | 2 | 61 | 81.6 | inactive |
| Slc2a6 | 3 | 46.8 | 40 | inactive |

Just “viability (ATP), % of control”, for 9 of the entries above:
Sqstm1 (sequestosome 1) #3 = 147
Lyrm2 (LYR motif containing 2) #1 = 82.9
Lyrm2 (LYR motif containing 2) #2 = 80.9
Lyrm2 (LYR motif containing 2) #3 = 51.7
Elovl4 (ELOVL fatty acid elongase 4) #1 = 92.6
Elovl4 (ELOVL fatty acid elongase 4) #2 = 175
Elovl4 (ELOVL fatty acid elongase 4) #3 = 92.4
Ube2e1 (ubiquitin-conjugating enzyme E2E 1) #1 = 89.6
Ube2e1 (ubiquitin-conjugating enzyme E2E 1) #2 = 52.9
